PubChem BioAssay AID1224830, NIAID, 2016
The deposit covers about 18,000 reagents; shown is a random part of them. About 2,900 of all reagents (16%) were called active. 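Calls are made per well; low scores hint the gene aids the LPS response, high scores that it dampens it.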 The numbers tell different reagents against one gene apart. Repeated entries: four replicate wells of each siRNA pool.

Test: 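Host factors that control LPS-induced TNF expression in human macrophages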 (primary screen)
Cells: human THP-1 monocytic leukaemia cells, TNF dual-luciferase reporter clone, PMA-differentiated to macrophage-like cells
Reagent: siRNA pool against human genes, 50 nM
Time to read-out: LPS for 4 h, given about 3 days after siRNA transfection
Conditions: bacterial LPS (TLR4 ligand), 10 ng/ml
Measurement: 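Ratio of firefly to renilla light, scaled to the plate median and expressed as a robust z-score per replicate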
Reading the numbers: TNF reporter robust z-score: higher = stronger TNF reporter response to LPS
Rule for the call: 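a well is active when its z-score exceeds 2.8 or falls below -1.5; control wells carry no call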

gene symbol	pool no.	TNF reporter robust z-score	Outcome
FOXS1 (forkhead box S1)	1	-0.39	inactive
FOXS1 (forkhead box S1)	1	-0.13	inactive
FOXS1 (forkhead box S1)	1	-0.66	inactive
FOXS1 (forkhead box S1)	1	-0.92	inactive
TBX10 (T-box transcription factor 10)	1	0.94	inactive
TBX10 (T-box transcription factor 10)	1	0.99	inactive
TBX10 (T-box transcription factor 10)	1	1.26	inactive
TBX10 (T-box transcription factor 10)	1	0.23	inactive
HSH2D (hematopoietic SH2 domain containing)	1	1.76	inactive
HSH2D (hematopoietic SH2 domain containing)	1	0.25	inactive
HSH2D (hematopoietic SH2 domain containing)	1	0.45	inactive
HSH2D (hematopoietic SH2 domain containing)	1	1.06	inactive
TNNT3 (troponin T3, fast skeletal type)	1	-0.17	inactive
TNNT3 (troponin T3, fast skeletal type)	1	0.22	inactive
TNNT3 (troponin T3, fast skeletal type)	1	0.78	inactive
TNNT3 (troponin T3, fast skeletal type)	1	-0.27	inactive
FOXH1 (forkhead box H1)	1	-0.95	inactive
FOXH1 (forkhead box H1)	1	-0.79	inactive
FOXH1 (forkhead box H1)	1	-0.86	inactive
FOXH1 (forkhead box H1)	1	-0.59	inactive
GGA3	1	-0.97	inactive
GGA3	1	-0.62	inactive
GGA3	1	-0.42	inactive
GGA3	1	-0.67	inactive
NHSL2 (NHS like 2)	1	0.34	inactive
NHSL2 (NHS like 2)	1	1.11	inactive
NHSL2 (NHS like 2)	1	0.1	inactive
NHSL2 (NHS like 2)	1	0.67	inactive
NHSL2 (NHS like 2)	2	-1.26	inactive
NHSL2 (NHS like 2)	2	-1.28	inactive
NHSL2 (NHS like 2)	2	1.24	inactive
NHSL2 (NHS like 2)	2	-0.33	inactive
NEUROG3 (neurogenin 3)	1	0.45	inactive
NEUROG3 (neurogenin 3)	1	-0.47	inactive
NEUROG3 (neurogenin 3)	1	-0.27	inactive
NEUROG3 (neurogenin 3)	1	-0.29	inactive
OR2Y1 (olfactory receptor family 2 subfamily Y member 1)	1	-1.01	inactive
OR2Y1 (olfactory receptor family 2 subfamily Y member 1)	1	-0.41	inactive
OR2Y1 (olfactory receptor family 2 subfamily Y member 1)	1	-0.67	inactive
OR2Y1 (olfactory receptor family 2 subfamily Y member 1)	1	-1.08	inactive
UPK2 (uroplakin 2)	1	0.78	inactive
UPK2 (uroplakin 2)	1	1.43	inactive
UPK2 (uroplakin 2)	1	-0.52	inactive
UPK2 (uroplakin 2)	1	-0.74	inactive
MSH3 (mutS homolog 3)	1	-0.1	inactive
MSH3 (mutS homolog 3)	1	1.78	inactive
MSH3 (mutS homolog 3)	1	1.29	inactive
MSH3 (mutS homolog 3)	1	1.24	inactive
CCDC42 (coiled-coil domain containing 42)	1	0.52	inactive
CCDC42 (coiled-coil domain containing 42)	1	-0.03	inactive
CCDC42 (coiled-coil domain containing 42)	1	0.2	inactive
CCDC42 (coiled-coil domain containing 42)	1	0	inactive
PHF3 (PHD finger protein 3)	1	0.45	inactive
PHF3 (PHD finger protein 3)	1	2.46	inactive
PHF3 (PHD finger protein 3)	1	-0.68	inactive
PHF3 (PHD finger protein 3)	1	1.83	inactive
HNRNPL (heterogeneous nuclear ribonucleoprotein L)	1	1.2	inactive
HNRNPL (heterogeneous nuclear ribonucleoprotein L)	1	1.68	inactive
HNRNPL (heterogeneous nuclear ribonucleoprotein L)	1	-0.56	inactive
HNRNPL (heterogeneous nuclear ribonucleoprotein L)	1	1.16	inactive
EPHA2 (EPH receptor A2)	1	0.77	inactive
EPHA2 (EPH receptor A2)	1	-0.12	inactive
EPHA2 (EPH receptor A2)	1	-0.31	inactive
EPHA2 (EPH receptor A2)	1	-0.09	inactive
ZC3H14 (zinc finger CCCH-type containing 14)	1	-0.56	inactive
ZC3H14 (zinc finger CCCH-type containing 14)	1	-0.17	inactive
ZC3H14 (zinc finger CCCH-type containing 14)	1	-0.85	inactive
ZC3H14 (zinc finger CCCH-type containing 14)	1	-0.92	inactive
MZT2A (mitotic spindle organizing protein 2A)	1	0.78	inactive
MZT2A (mitotic spindle organizing protein 2A)	1	1.17	inactive
MZT2A (mitotic spindle organizing protein 2A)	1	1.85	inactive
MZT2A (mitotic spindle organizing protein 2A)	1	1.13	inactive
SAA4 (serum amyloid A4, constitutive)	1	0.85	inactive
SAA4 (serum amyloid A4, constitutive)	1	0.3	inactive
SAA4 (serum amyloid A4, constitutive)	1	0.34	inactive
SAA4 (serum amyloid A4, constitutive)	1	-0.52	inactive
GPR139 (G protein-coupled receptor 139)	1	-0.7	inactive
GPR139 (G protein-coupled receptor 139)	1	-0.95	inactive
GPR139 (G protein-coupled receptor 139)	1	-0.64	inactive
GPR139 (G protein-coupled receptor 139)	1	-0.47	inactive
RSAD2 (radical S-adenosyl methionine domain containing 2)	1	0.45	inactive
RSAD2 (radical S-adenosyl methionine domain containing 2)	1	0.98	inactive
RSAD2 (radical S-adenosyl methionine domain containing 2)	1	1.41	inactive
RSAD2 (radical S-adenosyl methionine domain containing 2)	1	0.7	inactive
TMEM89 (transmembrane protein 89)	1	-0.9	inactive
TMEM89 (transmembrane protein 89)	1	-0.52	inactive
TMEM89 (transmembrane protein 89)	1	-0.45	inactive
TMEM89 (transmembrane protein 89)	1	0.17	inactive
PSKH1 (protein serine kinase H1)	1	0.08	inactive
PSKH1 (protein serine kinase H1)	1	0.05	inactive
PSKH1 (protein serine kinase H1)	1	0.95	inactive
PSKH1 (protein serine kinase H1)	1	0.9	inactive
EPHA10 (EPH receptor A10)	1	-0.47	inactive
EPHA10 (EPH receptor A10)	1	-0.57	inactive
EPHA10 (EPH receptor A10)	1	-0.64	inactive
EPHA10 (EPH receptor A10)	1	-0.17	inactive
EIF3H (eukaryotic translation initiation factor 3 subunit H)	1	-0.33	inactive
EIF3H (eukaryotic translation initiation factor 3 subunit H)	1	-1.26	inactive
EIF3H (eukaryotic translation initiation factor 3 subunit H)	1	-0.26	inactive
EIF3H (eukaryotic translation initiation factor 3 subunit H)	1	-0.38	inactive
ALKBH6 (alkB homolog 6, nucleotide demethylase)	1	1.12	inactive
ALKBH6 (alkB homolog 6, nucleotide demethylase)	1	1.81	inactive
ALKBH6 (alkB homolog 6, nucleotide demethylase)	1	0.11	inactive
ALKBH6 (alkB homolog 6, nucleotide demethylase)	1	0.91	inactive
FTCD (formimidoyltransferase cyclodeaminase)	1	-0.26	inactive
FTCD (formimidoyltransferase cyclodeaminase)	1	-0.4	inactive
FTCD (formimidoyltransferase cyclodeaminase)	1	-0.48	inactive
FTCD (formimidoyltransferase cyclodeaminase)	1	-1.02	inactive
ACSBG2 (acyl-CoA synthetase bubblegum family member 2)	1	-0.13	inactive
ACSBG2 (acyl-CoA synthetase bubblegum family member 2)	1	0.07	inactive
ACSBG2 (acyl-CoA synthetase bubblegum family member 2)	1	-0.76	inactive
ACSBG2 (acyl-CoA synthetase bubblegum family member 2)	1	0.38	inactive
